The values that follow come from paper PMC6481338.

Sequences of proteins named here, by UniProt entry; tags and fusion partners are left off. A change or cut given only in a name is not applied to a line headed by its entry. Residues count along the entry.
UniProt P16070, residues 21-742: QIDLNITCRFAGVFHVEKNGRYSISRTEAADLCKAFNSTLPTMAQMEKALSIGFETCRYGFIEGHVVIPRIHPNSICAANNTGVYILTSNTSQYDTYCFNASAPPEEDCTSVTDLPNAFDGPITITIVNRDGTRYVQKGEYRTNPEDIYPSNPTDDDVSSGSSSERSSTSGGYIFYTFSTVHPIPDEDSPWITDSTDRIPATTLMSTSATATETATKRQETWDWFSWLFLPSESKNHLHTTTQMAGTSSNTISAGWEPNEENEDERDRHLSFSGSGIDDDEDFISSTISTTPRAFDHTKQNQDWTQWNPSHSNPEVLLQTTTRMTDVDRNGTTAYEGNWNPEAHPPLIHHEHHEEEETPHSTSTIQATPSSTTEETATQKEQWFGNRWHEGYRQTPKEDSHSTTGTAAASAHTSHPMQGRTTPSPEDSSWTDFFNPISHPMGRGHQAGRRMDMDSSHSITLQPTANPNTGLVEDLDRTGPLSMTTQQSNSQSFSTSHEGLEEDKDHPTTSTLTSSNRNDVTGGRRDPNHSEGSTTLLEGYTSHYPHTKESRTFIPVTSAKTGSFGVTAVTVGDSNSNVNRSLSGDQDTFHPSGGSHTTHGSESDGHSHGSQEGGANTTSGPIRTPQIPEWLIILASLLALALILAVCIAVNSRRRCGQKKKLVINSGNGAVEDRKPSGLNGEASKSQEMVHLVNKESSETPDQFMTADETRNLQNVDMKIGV
UniProt P05556: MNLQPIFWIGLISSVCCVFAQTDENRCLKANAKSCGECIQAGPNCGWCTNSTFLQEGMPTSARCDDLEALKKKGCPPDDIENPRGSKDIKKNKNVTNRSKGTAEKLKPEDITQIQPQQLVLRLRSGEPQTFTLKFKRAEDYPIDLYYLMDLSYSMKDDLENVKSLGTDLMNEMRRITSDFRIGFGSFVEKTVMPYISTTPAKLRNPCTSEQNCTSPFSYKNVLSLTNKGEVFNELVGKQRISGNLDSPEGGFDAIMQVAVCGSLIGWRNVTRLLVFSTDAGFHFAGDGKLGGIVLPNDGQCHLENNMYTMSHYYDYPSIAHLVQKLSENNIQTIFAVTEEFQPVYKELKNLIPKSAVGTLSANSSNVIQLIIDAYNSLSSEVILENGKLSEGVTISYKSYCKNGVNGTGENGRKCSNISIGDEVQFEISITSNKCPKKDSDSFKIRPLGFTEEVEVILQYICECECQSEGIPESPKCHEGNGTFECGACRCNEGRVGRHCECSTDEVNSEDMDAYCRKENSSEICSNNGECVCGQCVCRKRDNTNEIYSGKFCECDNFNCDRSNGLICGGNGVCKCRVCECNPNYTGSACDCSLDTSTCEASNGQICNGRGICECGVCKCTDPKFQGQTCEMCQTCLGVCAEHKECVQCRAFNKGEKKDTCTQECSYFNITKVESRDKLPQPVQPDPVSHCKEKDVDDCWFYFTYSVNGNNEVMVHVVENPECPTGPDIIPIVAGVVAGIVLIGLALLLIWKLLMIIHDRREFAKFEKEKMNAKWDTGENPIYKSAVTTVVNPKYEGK

No constants are given. Whether binding was seen depends on the method and setting. In cells and extracts the contact can be indirect. Some entries that bind do so weakly or less than the wild type.

What all share (assay): co-IP; whole-cell lysates of TMK-1 (and MKN74 for CLDN4-CLDN4), pre-cleaned with protein A/G agarose; precipitation antibody to CLDN4 (4D3) or CLDN7 with protein A/G agarose, 3 h at 4°C, five washes with lysis buffer; immunoblot for CLDN4, integrin β1, CD44; cells untreated, treated with 4D3, or with CLDN4 or ITGβ1 knockdown
(Immunoblotting shows a protein as a band on a membrane.)

Assay [1] deals with claudin-4 (CLDN4) (human (endogenous in TMK-1 and MKN74)) (UniProt O14493).
Assay [2] deals with T1, CLDN7 (human (endogenous in TMK-1)) (UniProt O95471).
T1 sequence: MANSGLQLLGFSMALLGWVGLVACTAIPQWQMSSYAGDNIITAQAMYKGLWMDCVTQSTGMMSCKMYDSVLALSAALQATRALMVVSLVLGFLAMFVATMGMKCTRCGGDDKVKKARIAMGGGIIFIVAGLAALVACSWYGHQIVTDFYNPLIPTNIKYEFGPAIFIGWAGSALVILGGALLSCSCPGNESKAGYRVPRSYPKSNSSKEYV

In assay [3] the target is T2, CLDN7 (human (endogenous in TMK-1)), O95471.
T2 chain: T1 sequence
Conditions: remark: other sources report otherwise.

The target in assay [4] is T3, claudin-4 (CLDN4) (human (endogenous in TMK-1 and MKN74)), O14493.
T3 chain: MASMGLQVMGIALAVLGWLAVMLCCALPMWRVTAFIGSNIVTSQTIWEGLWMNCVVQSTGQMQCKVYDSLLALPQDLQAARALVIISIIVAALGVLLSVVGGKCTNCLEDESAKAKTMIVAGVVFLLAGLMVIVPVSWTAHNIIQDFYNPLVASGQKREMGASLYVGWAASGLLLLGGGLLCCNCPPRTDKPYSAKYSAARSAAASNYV
Particulars: remark: other sources report otherwise.

For “CD44 (from UniProt P16070 21-742) (receptor)”, in assay [1], the binding result is recorded as “binds”.

For “integrin β1 (ITGβ1) (from UniProt P05556 21-798) (receptor)”, in assay [2], the binding result is reported as “binds”.

B1: claudin-4 (CLDN4), O14493 1-209 (protein)
chain: T3 chain
B1: the binding entry was “no binding” in assay [3] and “binds” in assay [4].
